The other results are listed elsewhere or left out.
What was measured:
Experiment in all cases: NMR binding call after quantification (hit when 2 of 3 NMR criteria are met) (binary (1 = binding, 0 = not binding)); higher = binding
Conditions in all cases: RNA concentration 10 µM; fragment concentration 200 µM; 293 K
[1] = test system: SARS-CoV-2 5'-UTR RNA
[2] = test system: SARS-CoV-2 5_SL1 RNA
[3] = test system: SARS-CoV-2 5_SL1234 RNA
[4] = test system: SARS-CoV-2 5_SL2+3 RNA
[5] = test system: SARS-CoV-2 5_SL4 RNA
[6] = test system: SARS-CoV-2 5_SL5 RNA
[7] = test system: SARS-CoV-2 5_SL5a RNA
[8] = test system: SARS-CoV-2 5_SL5b+c RNA
[9] = test system: SARS-CoV-2 5_SL5stem RNA
[10] = test system: SARS-CoV-2 5_SL6 RNA

Measured: NMR binding call

CC(C)c1nnc(NCC(C)(C)C)s1
0: all assays above

CNC(=O)CNc1ncnc2sccc12
0: all assays above

O=C(Nc1cccc(F)c1)c1cnccn1
0: all assays above

CCc1ccccc1NC(=O)c1snnc1C
0: all assays above

Cc1ccccc1OCC(=O)Nc1ccccc1
1: [6]
0: all other assays above

Cc1ccccc1OCC(=O)N(C)C
0: all assays above

CCS(=O)(=O)NCc1ccc2c(c1)OCO2
0: all assays above

CCOC(=O)N1CCOCC1
0: all assays above

CC(=O)Nc1cc(C(N)=O)cc(C(N)=O)c1
0: all assays above

CCC(CC)C(=O)Nc1nccs1
0: all assays above

CC(=O)Nc1cccc(NC(N)=O)c1
0: all assays above

C1CC(CNC2CC2)CO1 (stereo not given)
0: all assays above

CC(=O)NC1CNc2ccccc2C1 (stereo not given)
0: all assays above

CCc1nnc(NC(=O)CN(C)C)s1
0: all assays above

CC(C)(N)CN1CCCC1
0: all assays above

O=C(O)c1cccc(NC(=O)c2ccno2)c1
0: all assays above

CCOC(=O)Nc1cccc(Cl)c1
0: all assays above

Cc1ccc(NC(=O)c2ccccc2C)c(O)c1
0: all assays above

CN(C)CCN1C(=O)c2ccccc2C1=O
0: all assays above

CCNC(=O)c1ccc(N(C)C)c(F)c1
0: all assays above

COCC(=O)Nc1cccc(NC(C)=O)c1
0: all assays above

O=C(c1c(F)cccc1F)N1CCCC1
0: all assays above

CNCc1ccc(C(F)(F)F)cc1
0: all assays above

Cc1nnc(NC(=O)N2CCOCC2)s1
0: all assays above

c1ccc(-c2ccc(-n3cnnn3)cc2)cc1
1: [10]
0: all other assays above

CC(Oc1ccc(C#N)cc1)C(N)=O (stereo not given)
0: all assays above

N#CCN1CCN(c2cccc(Cl)c2)CC1
0: all assays above

O=C(NCc1nc2ccccc2[nH]1)c1ccco1
0: all assays above

Cn1ccc(C(=O)NCC2CCCO2)n1 (stereo not given)
0: all assays above

Cc1noc(C)c1C(=O)NCCC1=CCCCC1
0: all assays above

O=C(Cc1ccccc1)N1CCc2ccccc21
0: all assays above

CCCC(=O)Nc1nnn(CC)n1
0: all assays above

Cc1noc(NC(=O)CC2CCCC2)n1
0: all assays above

Cc1cc(NC(=O)CSc2ccccc2)no1
0: all assays above

CCC(=O)NC1CCNC1 (stereo not given)
0: all assays above

O=C(NCC1CC1)Nc1ccc2c(c1)CCO2
0: all assays above

O=c1[nH]cc(N2CCCCC2)c(=O)[nH]1
0: all assays above

CC(=O)Nc1cccc(C(=O)O)c1C
0: all assays above

Cc1cccc(N2CCNC(C)C2)n1 (stereo not given)
0: all assays above

CNC(=O)c1cnc(C)s1
0: all assays above

CC(=O)Nc1cc2c(cc1C)OCO2
0: all assays above

Cc1ccc(CN2CCS(=O)(=O)CC2)cc1
0: all assays above

Cc1nc(CN2CC(F)CC2CN)cs1 (stereo not given)
0: all assays above

CCc1ccc(OCC(=O)N2CCCCC2)cc1
0: all assays above

NC(=O)C1CCC(F)(F)CC1
0: all assays above

CC(N)c1ccc(NC(=O)C2CC2)cc1.Cl (stereo not given)
0: all assays above

CC(C)NC(=O)CN1CCCNCC1
0: all assays above

CC(C)C(=O)N1CCC(Cc2ccccc2)CC1
0: all assays above

c1cc(NCC2CCCO2)ccn1 (stereo not given)
0: all assays above

Cc1nn(C)c(C)c1NC(=O)CC#N
0: all assays above

Cc1ccc(C(N)=O)c(F)c1
0: all assays above

Cc1ccc(CC(=O)Nc2nccs2)cc1
0: all assays above

CN1CCN(c2ncccc2F)CC1=O
0: all assays above

Cc1cc(C(=O)NCc2cccs2)no1
0: all assays above

O=C(Nc1ccc(Cl)cc1)Nn1cnnc1
0: all assays above

CC(=O)c1cccc(NC(=O)N2CCOCC2)c1
0: all assays above

CC(C)(C)CC(=O)Nc1ccc(F)cc1F
0: all assays above

CNCCC1CCCCC1
0: all assays above

CCC(C)NC(=O)c1ccccc1N (stereo not given)
0: all assays above

CS(=O)(=O)NCC1CCNCC1
0: all assays above

CC(C)(O)CNC1CCOCC1
0: all assays above

CC1CCCCN1CCN (stereo not given)
0: all assays above

Cc1ccc(Nc2ncnc3[nH]ncc23)cc1
0: all assays above

CC1CCN(CCN)CC1
0: all assays above

CNc1ccccc1S(C)(=O)=O
0: all assays above

COCCNC1CCN(C(C)=O)CC1
0: all assays above

CCCC(=O)Nc1cccnc1Cl
0: all assays above

CC(=O)Nc1cc(C(=O)O)ccc1F
0: all assays above

CC(=O)N1CCCC(C(N)=O)C1 (stereo not given)
0: all assays above

COc1ccc(CC(=O)Nc2nncs2)cc1
0: all assays above

CC(=O)N(C)c1ccccc1C(=O)O
0: all assays above

O=C(Nc1nnc[nH]1)c1cccnc1Cl
0: all assays above

CCS(=O)(=O)N1CCC(C(=O)O)CC1
0: all assays above

O=C(COC(F)F)N1CCCC2(CC2)C1
0: all assays above

CC(C)c1ccc(NC(=O)N2CCOCC2)cc1
0: all assays above

N#CCC(=O)N1CCC(C(N)=O)CC1
0: all assays above

CNC1CCN(c2ccccc2F)C1=O.Cl (stereo not given)
0: all assays above

CC(O)CNC1CCCCC1 (stereo not given)
0: all assays above

CCc1cc(=O)n2nc(NC)sc2n1
0: all assays above

CCC(=O)Nc1nc(C)cs1
0: all assays above

CCCn1nnnc1NC(=O)c1ccco1
0: all assays above

CCc1ncc(CNC)s1
0: all assays above

Cc1nnc(N2CCCCC2)s1
0: all assays above

CCOc1ccc(NC(=O)c2cnccn2)cc1
0: all assays above

CC(=O)Nc1ccc(C#N)cc1
0: all assays above

Cc1n[nH]c(C)c1-c1ccccc1N
0: all assays above

COc1cc(CN)cc(OC)c1OC.Cl
0: all assays above

CN(C)S(=O)(=O)c1cn[nH]c1
0: all assays above

CC1CCCCN1C(=O)c1cnccn1 (stereo not given)
0: all assays above

CN1CCN(C(=O)C2CCCN2)CC1 (stereo not given)
0: all assays above

COCC(=O)NCc1nc2ccccc2[nH]1
0: all assays above

NCc1ccccc1OC(F)(F)F
0: all assays above

CC(=O)NCCc1ccccc1C
0: all assays above

Reprinted at random: 7 records from the list, in no set order.
Cc1nc(CN2CC(F)CC2CN)cs1 (stereo not given)
0: all assays above

CC(C)(O)CNC1CCOCC1
0: all assays above

c1cc(NCC2CCCO2)ccn1 (stereo not given)
0: all assays above

CCc1ccc(OCC(=O)N2CCCCC2)cc1
0: all assays above

CC(=O)Nc1cc2c(cc1C)OCO2
0: all assays above

Cc1noc(C)c1C(=O)NCCC1=CCCCC1
0: all assays above

Cc1cc(NC(=O)CSc2ccccc2)no1
0: all assays above

Carrying on:

CC(=O)N1CC2CCC1c1ccccc12 (stereo not given)
0: all assays above

CC(C)NC(=O)N(C)Cc1cnn(C)c1
0: all assays above

CC1(C)CCCN1CCN
0: all assays above

CCC(=O)Nc1ccc(S(N)(=O)=O)cc1
0: all assays above

Cn1nc(C(N)=O)c2ccccc21
0: all assays above

CCn1c(NC(C)=O)nc2ccccc21
0: all assays above

CC(=O)N1CCC(N)CC1
0: all assays above

CNS(=O)(=O)c1cccc(C)c1F
0: all assays above

CCNCc1cn(C)nn1
0: all assays above

COC(=O)Nc1cc(C)n(-c2ccccc2)n1
0: all assays above

Oc1ccccc1-c1nc(-c2ccccc2)no1
0: all assays above

O=C(CCc1ccccc1)Nc1ccc(O)cc1
0: all assays above
